Test results taken from paper doi:10.1101/2022.12.01.518768.
Results are given in words; binding and its absence hold for the method and conditions named.

Molecular target: LhcB2-GFP (~55 kDa) (Arabidopsis thaliana) (UniProt Q9S7J7)
Test: native gel or EMSA

Q: “LhcB2-GFP (~55 kDa) (from UniProt Q9S7J7 38-265)” was tested. Which binding did it give?
A: Its binding is “no binding”.
